From patent US4479941A (Merck & Co., Inc., priority 1982, dated 1984)

Test: general procedure: Boc solid-phase peptide synthesis; HBT
Details: late stage modification step, high performance liquid chromatography

Which “final HPLC purity” value does the source give for “PEPTIDE1{[IBU].H.P.F.H.[Sta].L.[NHBzl]}$$$$V2.0” here?
The value was 93.1%.

Some peptides are written in HELM: one residue between dots, names in brackets for other building blocks, links after the first $.
